Data reported in US20160356775A1.
Results are given in words; binding and its absence hold for the method and conditions named. Some binding calls cover weakened binding; strength is not graded here.

The chains behind the UniProt entries cited, without tags or fusion partners.
UniProt P03372: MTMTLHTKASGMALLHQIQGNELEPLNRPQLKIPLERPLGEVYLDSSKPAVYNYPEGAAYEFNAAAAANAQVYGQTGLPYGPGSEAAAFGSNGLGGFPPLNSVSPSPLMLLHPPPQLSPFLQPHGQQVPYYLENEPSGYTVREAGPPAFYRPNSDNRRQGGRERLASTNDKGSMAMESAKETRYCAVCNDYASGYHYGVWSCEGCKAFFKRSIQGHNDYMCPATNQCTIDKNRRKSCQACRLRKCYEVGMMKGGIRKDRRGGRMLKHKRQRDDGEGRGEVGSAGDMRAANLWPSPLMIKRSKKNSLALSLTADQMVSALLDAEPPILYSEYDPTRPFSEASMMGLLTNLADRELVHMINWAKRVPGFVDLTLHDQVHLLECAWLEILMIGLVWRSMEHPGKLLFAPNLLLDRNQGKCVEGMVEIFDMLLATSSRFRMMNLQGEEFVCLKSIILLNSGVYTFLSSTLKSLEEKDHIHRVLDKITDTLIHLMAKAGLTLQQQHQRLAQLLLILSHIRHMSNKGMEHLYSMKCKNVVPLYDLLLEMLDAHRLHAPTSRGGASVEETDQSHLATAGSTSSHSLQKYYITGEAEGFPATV

Tests used:
[1] = target: Estrogen receptor alpha (ERα), endogenous protein in MCF-7 cells (human) (UniProt P03372); assay: immunofluorescence, confocal microscopy of fixed MCF-7 cells (legend of FIG. 20F)
[2] = target: Estrogen receptor alpha (ERα), endogenous protein in MCF-7 cells (human) (UniProt P03372); assay: immunofluorescence, confocal microscopy of fixed MCF-7 cells

binding [1]: binds
binding [2]: binds
B1: LMTK3 (lemur tyrosine kinase 3), endogenous protein in MCF-7 cells and in breast cancer tissue (enzyme, human, UniProt Q96Q04 21-1460, looked up)
chain: SPAHPDGFALGRAPLAPPYAVVLISCSGLLAFIFLLLTCLCCKRGDVGFKEFENPEGEDCSGEYTPPAEETSSSQSLPDVYILPLAEVSLPMPAPQPSHSDMTTPLGLSRQHLSYLQEIGSGWFGKVILGEIFSDYTPAQVVVKELRASAGPLEQRKFISEAQPYRSLQHPNVLQCLGLCVETLPFLLIMEFCQLGDLKRYLRAQRPPEGLSPELPPRDLRTLQRMGLEIARGLAHLHSHNYVHSDLALRNCLLTSDLTVRIGDYGLAHSNYKEDYYLTPERLWIPLRWAAPELLGELHGTFMVVDQSRESNIWSLGVTLWELFEFGAQPYRHLSDEEVLAFVVRQQHVKLARPRLKLPYADYWYDILQSCWRPPAQRPSASDLQLQLTYLLSERPPRPPPPPPPPRDGPFPWPWPPAHSAPRPGTLSSPFPLLDGFPGADPDDVLTVTESSRGLNLECLWEKARRGAGRGGGAPAWQPASAPPAPHANPSNPFYEALSTPSVLPVISARSPSVSSEYYIRLEEHGSPPEPLFPNDWDPLDPGVPAPQAPQAPSEVPQLVSETWASPLFPAPRPFPAQSSASGSFLLSGWDPEGRGAGETLAGDPAEVLGERGTAPWVEEEEEEEEGSSPGEDSSSLGGGPSRRGPLPCPLCSREGACSCLPLERGDAVAGWGGHPALGCPHPPEDDSSLRAERGSLADLPMAPPASAPPEFLDPLMGAAAPQYPGRGPPPAPPPPPPPPRAPADPAASPDPPSAVASPGSGLSSPGPKPGDSGYETETPFSPEGAFPGGGAAEEEGVPRPRAPPEPPDPGAPRPPPDPGPLPLPGPREKPTFVVQVSTEQLLMSLREDVTRNLLGEKGATARETGPRKAGRGPGNREKVPGLNRDPTVLGNGKQAPSLSLPVNGVTVLENGDQRAPGIEEKAAENGALGSPEREEKVLENGELTPPRREEKALENGELRSPEAGEKVLVNGGLTPPKSEDKVSENGGLRFPRNTERPPETGPWRAPGPWEKTPESWGPAPTIGEPAPETSLERAPAPSAVVSSRNGGETAPGPLGPAPKNGTLEPGTERRAPETGGAPRAPGAGRLDLGSGGRAPVGTGTAPGGGPGSGVDAKAGWVDNTRPQPPPPPLPPPPEAQPRRLEPAPPRARPEVAPEGEPGAPDSRAGGDTALSGDGDPPKPERKGPEMPRLFLDLGPPQGNSEQIKARLSRLSLALPPLTLTPFPGPGPRRPPWEGADAGAAGGEAGGAGAPGPAEEDGEDEDEDEEEDEEAAAPGAAAGPRGPGRARAAPVPVVVSSADADAARPLRGLLKSPRGADEPEDSELERKRKMVSFHGDVTVYLFDQETPTNELSVQAPPEGDTDPSTPPAPPTPPHPATPGDGFPSNDSGFGGSFEWAEDFPLLPPPGPPLCFSRFSVSPALETPGPPARAPDARPAGPVEN
